Laboratory results taken from patent publication US20130171139A1, “NCAM-VASE AND NEURODEGENERATION” (priority 2010, published 2013).
At least one compound was matched to its structure with a doubt left.

System: PND4 rat cerebellar granule neurons
Test: Neurite/axon outgrowth of cerebellar granule neurons cultured on 3T3 monolayers (control, NCAM or NCAM-VASE)
Type: cell-based
Details: FGF (0.1 ng/m) or forskolin added to culture medium
Experimental: It has previously been shown that soluble NCAM-Fc stimulates axon outgrowth over control monolayers as effectively as if it were expressed in the monolayer (Meiri et al, J. Neurosci, 1998, 18, 10429-10437). […]
[…] Cerebellar granule neurons were cultured on control, NCAM-expressing (NCAM) or NCAM-VASE-expressing (VASE) monolayers in the absence of presence of soluble NCAM-Fc or NCAM-VASE-Fc (VASE-Fc).

With `C=C[C@@]1(C)CC(=O)[C@]2(O)[C@@]3(C)[C@@H](O)CCC(C)(C)[C@@H]3[C@H](O)[C@H](OC(C)=O)[C@@]2(C)O1` [forskolin] the axon length (NCAM-VASE-expressing monolayers) was “do not extend longer axons” and the axon outgrowth (control monolayers) was “stimulate axon outgrowth”.
